The values below come from paper PMC11077055, “Structure-functional characterization of Lactococcus AbiA phage defense system” (Nucleic Acids Research, 2024).

The target in the assay is SUMO-tagged AbiA-ΔHEPN (aa 1-478) (L. lactis) (UniProt Q48596). Nature of the assay: SEC-MALS; Superdex 200 Increase 10/300 GL; 25 mM Tris pH 7.0, 400 mM NaCl, 2% glycerol, 1 mM DTT; 0.75 ml/min; self-association of AbiA variants; both purified.

Results are given in words; binding and its absence hold for the method and conditions named. Sequences can lack the tags named with a protein.

B1: SUMO-tagged AbiA-ΔHEPN (aa 1-478) (domain or fragment, UniProt Q48596 1-478)
chain: MITLQHQDWERAVNMIKNIPPSAKNKYFQTFPFFLLSETSWEELLSENFFYSYIKSGEFLTYQENLSFYDRTIQKSHGAYRQTRIVSPIIYIFLIAIASQVERIYVEKRTNDMSVYFSGSFEKEKNTAHYKQSYNTYMTELNACQEEFDYYFQTDFSTFFHLVDTDNLFNKIDRLDPKSALVYSSLIKMIGQGRMPIVDGNSGLSFLNTVVYLDDFDKEIIDSLKTIVEIESFKLVRYVDDLHIFIKCANKDLDFLNYKVYNLLCEKATKHHLEINSSKTKSFTPTSELSTKMNTDLYNFFVYNEDVDFEQYFSKNTLIEFLDKLNNMSVNADFSEYEKEVLYTLENPEIVSDGSYILNAIVYNKSTWSQDYDIKNKISLLVNSNYRKLRYSAKALITLVLNTRDGDIIKGLLNNLFTTFKNGTNDIIDEIILIEYLVQRKFNHKDLMTILKADDHGIKEYIKAYQTSDFIKSLEKNK
For B1, the binding entry is “no binding”.
